In patent US20220259167A1, “FUROSEMIDE ANALOGUES AND COMPOSITIONS AND USES THEREOF FOR TREATMENT OF ALZHEIMER'S DISEASE” (UNIVERSITY HEALTH NETWORK, priority 2019, published 2022):

Test system: peripheral mononuclear cells
Conditions: data not shown

SMILES: NS(=O)(=O)c1cc(C(=O)O)c(NCc2ccco2)cc1Cl [Furosemide, 4-Chloro-2-((furan-2-ylmethyl)amino)-5-sulfamoylbenzoic Acid]
- Production and release of cytokines including IL-6, IL-8, and TNF-α: inhibits the production and release of cytokines
